No constants are given. Whether binding was seen depends on the method and setting. Some binding calls cover weakened binding; strength is not graded here.
Tests used:
[1] = biological target: αPAK purified from neutrophil cytosol (64/68 kDa bands) (Homo sapiens (Human)) (UniProt Q13153); assay: far-Western overlay, [γ32P]GTP-labelled probe on nitrocellulose filter
[2] = biological target: βPAK purified from neutrophil cytosol (65 kDa band) (Homo sapiens (Human)) (UniProt O75914); assay: as above
[3] = biological target: γPAK purified from neutrophil cytosol (62 kDa band) (Homo sapiens (Human)) (UniProt Q13177); assay: as above
[4] = biological target: γPAK purified from neutrophil cytosol (62 kDa band) (Homo sapiens (Human)) (UniProt Q13177); assay: far-Western overlay and Cdc42Hs-GST affinity chromatography; band identified by peptide sequencing

The chains behind the UniProt entries cited, without tags or fusion partners. Where a name states a change or a piece, a line headed by the entry shows the natural chain unless it says otherwise.
UniProt Q13153: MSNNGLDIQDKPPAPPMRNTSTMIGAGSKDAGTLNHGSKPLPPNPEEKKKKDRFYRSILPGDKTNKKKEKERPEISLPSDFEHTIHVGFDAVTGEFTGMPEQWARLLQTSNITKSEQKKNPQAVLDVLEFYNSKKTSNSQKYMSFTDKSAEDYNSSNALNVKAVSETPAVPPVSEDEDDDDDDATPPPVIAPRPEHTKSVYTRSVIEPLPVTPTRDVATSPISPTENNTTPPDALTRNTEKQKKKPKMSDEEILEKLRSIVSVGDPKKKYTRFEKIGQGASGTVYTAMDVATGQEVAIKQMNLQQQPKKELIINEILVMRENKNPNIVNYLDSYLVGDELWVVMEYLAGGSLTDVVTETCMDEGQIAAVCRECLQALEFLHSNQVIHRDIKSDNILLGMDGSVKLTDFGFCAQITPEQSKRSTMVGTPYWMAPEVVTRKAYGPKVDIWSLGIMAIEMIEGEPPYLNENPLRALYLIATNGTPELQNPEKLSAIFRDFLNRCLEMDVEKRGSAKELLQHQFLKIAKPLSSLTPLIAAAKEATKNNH
UniProt O75914: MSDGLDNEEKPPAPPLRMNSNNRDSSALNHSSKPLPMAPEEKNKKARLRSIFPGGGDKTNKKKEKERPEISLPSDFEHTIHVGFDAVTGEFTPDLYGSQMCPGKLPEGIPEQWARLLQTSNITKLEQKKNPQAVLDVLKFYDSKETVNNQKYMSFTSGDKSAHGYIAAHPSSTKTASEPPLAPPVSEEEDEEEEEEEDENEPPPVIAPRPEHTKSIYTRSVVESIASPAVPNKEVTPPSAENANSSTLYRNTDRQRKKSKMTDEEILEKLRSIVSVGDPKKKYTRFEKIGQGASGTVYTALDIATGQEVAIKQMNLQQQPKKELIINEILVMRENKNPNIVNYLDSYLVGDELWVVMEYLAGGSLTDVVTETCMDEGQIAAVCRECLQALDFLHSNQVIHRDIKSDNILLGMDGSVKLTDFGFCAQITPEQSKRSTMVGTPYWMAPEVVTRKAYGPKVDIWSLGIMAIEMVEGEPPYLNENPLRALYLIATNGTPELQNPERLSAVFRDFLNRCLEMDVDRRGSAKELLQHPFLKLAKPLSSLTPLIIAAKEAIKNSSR
UniProt Q13177: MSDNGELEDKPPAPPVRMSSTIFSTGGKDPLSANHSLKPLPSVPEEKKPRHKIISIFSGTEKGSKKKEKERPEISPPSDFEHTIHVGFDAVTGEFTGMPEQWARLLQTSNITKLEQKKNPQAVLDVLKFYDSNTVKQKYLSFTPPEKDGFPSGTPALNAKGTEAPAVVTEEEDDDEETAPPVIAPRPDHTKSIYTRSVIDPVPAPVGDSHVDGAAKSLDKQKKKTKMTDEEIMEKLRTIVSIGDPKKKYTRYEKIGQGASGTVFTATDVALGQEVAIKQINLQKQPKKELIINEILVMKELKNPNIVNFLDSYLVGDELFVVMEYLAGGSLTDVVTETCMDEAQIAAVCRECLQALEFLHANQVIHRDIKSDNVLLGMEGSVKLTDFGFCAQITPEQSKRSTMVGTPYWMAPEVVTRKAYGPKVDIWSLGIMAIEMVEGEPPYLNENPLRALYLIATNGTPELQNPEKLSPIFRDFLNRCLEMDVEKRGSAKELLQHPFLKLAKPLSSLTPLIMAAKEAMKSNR
UniProt P60953: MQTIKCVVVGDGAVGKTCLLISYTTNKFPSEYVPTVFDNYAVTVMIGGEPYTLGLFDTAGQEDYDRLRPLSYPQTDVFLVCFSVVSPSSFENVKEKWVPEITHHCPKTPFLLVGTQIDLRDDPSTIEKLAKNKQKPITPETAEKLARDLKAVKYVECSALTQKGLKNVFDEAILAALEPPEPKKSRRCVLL

Measured: binding

Cdc42Hs [γ32P]GTP-labelled probe (from UniProt P60953 1-191)
binds: all assays above
